Where “and” joins values, the source holds several entries; their conditions need not be identical. Equal values may be shown once. The campaign covered roughly 230,000 compounds. About 310 (0.13%) were called active. The shares of active, inactive and inconclusive entries below differ from those in the screen. The call rests on the fitted dose curve; in most records, active means well fitted activation curve with a large enough effect; inconclusive means small, poorly fitted or top-dose-only effect; inactive means no such curve, though single readings can be large or run the other way. Potencies beside an inconclusive call are fits to weak or partial responses and may not hold up. Where a structure was tested more than once in an assay, its records may differ in their call.
assay: qHTS Multiplex Assay to Identify Dual Action Probes in a Cell Model of Huntington: Cytoprotection (ATP); conditions: PC12 HTT-Q103 induced, ATP luminescence, 40 h; cytoprotection (ATP increase): at 56.4 µM (top of the series) unless noted; further: nearly all actives have a fitted effect of over 45% in size;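 on cytoprotection (ATP increase): toxic huntingtin expression switched on by the ecdysone agonist tebufenozide; % of control where 0% means no effect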
Method in brief: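 Readout: ATPlite luminescence (ATP level). Model: stable PC12, inducible Htt exon1 Q103-GFP. Inducer: tebufenozide, 100 nM final. Compounds: dose series. No G418 in medium.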
Potency means the concentration at half of the fitted maximal effect.

Compound	cytoprotection (ATP increase)	Potency
COCCNC(=O)COc1cccc2c1OC(C)(C)C2	inactive: -12.3%	
COCC(=O)N1CCC2(CCCN(C(=O)Nc3ccc(OC)cc3)C2)CC1		inconclusive: 11200 nM [activator, single point]
CCOC(=O)C1C(C(=O)OC)=C(C2=CCCCC2)c2ccccc2N1S(=O)(=O)C(F)(F)F (stereo not drawn)	inactive: 17.7%	
COc1ccc(S(=O)(=O)NNC(=O)c2sccc2-n2cccc2)cc1		inconclusive: 398 nM [activator, partial curve]
CN1CCN(c2ncc3nc(-c4cn(C)c5ccccc45)c(=O)n(CCC#N)c3n2)CC1		inconclusive: 562 nM [activator, single point]
COC(=O)c1sc(S(=O)(=O)NCCCN(C)C)c(C(=O)OC)c1C		inconclusive: 7940 nM [activator, partial curve]
O=c1[nH]c2[nH]c(=S)[nH]c(=S)c2[nH]1	inactive: -5.32% [at 10 µM]	
O=C(Cn1c(O)c(/C=C2\C=Nc3ccccc32)sc1=O)N1CCOCC1		inconclusive: 14100 nM [activator, single point]
CCN1CCN(CCCNC(=O)C(=O)c2c(C)[nH]c3ccccc23)CC1		inconclusive: 3160 nM [activator, single point]
COc1cc(CC(NC(C)=O)C(=O)NC2CCN(c3c4c(nc5ncnn35)CCC4)CC2)cc(OC)c1 (stereo not drawn)	inactive: 7.26% [at 10 µM]	
COc1ccc(OCC(=O)N/N=C2\CCCCc3ccccc32)cc1		inconclusive: 316 nM [activator, partial curve]
Nn1c(SCC(=O)N2CCOCC2)nnc1C1CC1		inconclusive: 35500 nM [activator, single point]
Oc1ccc2c(c1)OCC1c3cc4c(cc3OC21)OCO4 (stereo not drawn)		inconclusive: 1000 nM [activator, single point]
Cc1nc(NC2CCCCC2)c2nc(-c3ccccc3)n(C(C)CN(C)C)c2n1 (stereo not drawn)	inactive: -36.5%	
CCc1ccccc1N(C)S(=O)(=O)c1ccc2[nH]cc(C(=O)O)c(=O)c2c1		inconclusive: 5.6 nM [activator, full curve, poor fit]
Cc1ccc(CSCC(=O)N2CCCC2)cc1		inconclusive: 501 nM [activator, partial curve, poor fit]
CCN(CC)c1ccc(NC(=O)c2ccccc2F)cc1S(=O)(=O)Nc1ccccc1OC	inactive: -17.4% [at 10 µM]	
COc1ccccc1N1C(=O)CC(Sc2nc(C)cc(C)n2)C1=O (stereo not drawn)		inconclusive: 5620 nM [activator, single point]
CC(C)=CCC/C(C)=C/C=C/C1=CC2(C)CC1(C)C(/C=C(\C)CCC=C(C)C)CC2=O (stereo not drawn)		inconclusive: 1000 nM [activator, partial curve]
COc1ccc(N2CCN(C(=O)Cn3nnc(-c4ccccc4N)n3)CC2)cc1	inactive: -27.1%	
COc1ccc(NC(=O)Nc2cccs2)cc1Cl	inactive: -63.2%	
O=C(/C=C/c1ccc(Cl)c([N+](=O)[O-])c1)Nc1ccc(N2CCCC2)cc1		inconclusive: 891 nM [activator, single point]
O=C(NCc1ccncc1)C(=O)Nc1nc2ccccc2s1	inactive: -1.68%	

Compound	cytoprotection (ATP increase)	Potency
COc1ccccc1-c1nc(NC2CC2)c2ccccc2n1	inactive: -43.5%	
CCOC(=O)c1ccc(NC(=O)C(C)Sc2nc(O)c(-c3ccccc3)c(=O)[nH]2)cc1 (stereo not drawn)	inactive: -33.7%	
Cc1cc(C)cc(NC(=O)/C=C/c2ccc([N+](=O)[O-])s2)c1		inconclusive: 1260 nM [activator, partial curve, poor fit]
O=C1C2=CC[C@H]3C(=O)N(c4cccc(Oc5ccccc5)c4)C(=O)[C@@H]3[C@@H]2[C@H](O)[C@@H]2O[C@H]12		inconclusive: 141 nM [activator, full curve, poor fit]
Cc1ccc2c(c1)nnn2C1CCN(C(=O)Nc2ccccc2C)CC1		inconclusive: 5620 nM [activator, single point]
Cc1ccc(OCc2nc(-c3cccnc3)no2)cc1C		inconclusive: 5620 nM [activator, single point]
Cc1c2c(nc3nnnn13)CCCC2		inconclusive: 35500 nM [activator, single point]
CC(=O)C1=C(C)NC(SCC(N)=O)=C(C#N)C1c1ccco1 (stereo not drawn)	inactive: -9.77%	
CCOC(=O)N1CCC(N(C(=O)Nc2ccc(Cl)c(Cl)c2)C(C)CC)CC1 (stereo not drawn)	inactive: 18.3% [at 10 µM]	
O=C(Cc1cccs1)N/N=C/C=C\c1ccccc1[N+](=O)[O-]		inconclusive: 1260 nM [activator, single point]
Cc1ccccc1Nc1nnc(SCC(=O)NC2CCCc3ccccc32)s1 (stereo not drawn)	inactive: 34.4% [at 10 µM]	
COc1ccc(C2=CC3=C(Br)C(=O)C(C)(OC(=O)c4cnc5ccccc5n4)C(=O)C3=CO2)cc1 (stereo not drawn)		inconclusive: 5620 nM [activator, single point]
Cn1cnnc1Sc1ccc(C(=O)NCCC(c2ccccc2)c2ccccc2)cc1[N+](=O)[O-]		inconclusive: 447 nM [activator, partial curve]
c1cc2c(cc1-c1csc(NNC3=NCCCCC3)n1)OCCO2		inconclusive: 31600 nM [activator, single point]
O=C(NC1CCCC1)C1CCCN1C(=O)Oc1ccccc1 (stereo not drawn)		inconclusive: 35500 nM [activator, single point]
CC(C)CC(=O)Nc1ccc(C(=O)NNC(=S)NC(=O)C2CCCCC2)cc1	inactive: 18.1%	
COc1cc(/C=C/C(=O)/C=C(O)/C=C/c2ccc(O)c(OC)c2)ccc1O		inconclusive: 2820 nM [activator, single point]
CCOC(=S)SCC(=O)Nc1nc(C)c(C)s1	inactive: 6.42% [at 10 µM]	
Cc1ccc(NC(=O)CCC(=O)NNC(=O)Cc2ccccc2)cc1C		inconclusive: 112 nM [activator, full curve, poor fit]
Cc1cc(-c2n[nH]c(=S)n2/N=C/c2ccc(Cl)c([N+](=O)[O-])c2)n[nH]1	inactive: -86.8% [at 10 µM]	
Cc1ccccc1-c1nsc(SCC(=O)c2ccc(Cl)cc2)n1	inactive: 14.5% [at 10 µM]	
Cc1ccccc1NC(=S)N/N=C/C(C)c1ccccc1 (stereo not drawn)		active: 4470 nM
CCCC(=O)Nc1cccc(-c2nc3ccccc3o2)c1		inconclusive: 35500 nM [activator, single point]

Compound	cytoprotection (ATP increase)	Potency
CCN1/C(=C2\SC(=S)N(Cc3ccccc3)C2=O)Sc2ccccc21	inactive: 27.2% [at 10 µM]	
C[C@H](CCC(=O)O)[C@H]1CC[C@@H]2[C@@H]3[C@@H](O)C[C@H]4C[C@@H](O)CC[C@@]4(C)[C@H]3CC[C@@]21C		inconclusive: 355 nM [activator, full curve, poor fit]
CCC1(c2ccccc2)C(=O)NCNC1=O		inactive and inconclusive: 224 nM [activator, partial curve, poor fit] and active: 1.41 µM
O=C(Cc1ccccc1)N/N=C/c1ccc2cccc(O)c2n1		inconclusive: 1260 nM [activator, single point]
O=C(O)CC1(CC(=O)Nc2ccccc2N2CCOCC2)CCCC1	inactive: -1.96% [at 10 µM]	
COC(=O)c1ccc(Cn2cnc3c(cnn3-c3ccc(F)cc3)c2=O)o1	inactive: 0.573%	
CCC(C(=O)Nc1ccc2c(c1)OCCO2)c1ccccc1 (stereo not drawn)		inconclusive: 708 nM [activator, single point]
Clc1ccc(Cl)c(-c2nn3c(Cn4cnc5ccccc54)nnc3s2)c1	inactive: -3.62% [at 0.074 µM]	
C/C(=N\NC(N)=O)C1CC(CC(C)C)C(=O)O1 (stereo not drawn)		inconclusive: 1260 nM [activator, single point]
COC(=O)C(NC(=O)Nc1ccccc1OC)C(C)C (stereo not drawn)		inconclusive: 5010 nM [activator, single point]
COc1ccc(-c2nnc3ccc(SCC(=O)Nc4cc(C)on4)nn23)cc1		inconclusive: 5010 nM [activator, partial curve]
O=C(NN1C(=O)/C(=C/C=C/c2ccccc2)SC1=S)c1ccncc1		inconclusive: 15800 nM [activator, single point]
COc1cc(C(=O)c2ccccc2)c(OC)cc1C(=O)Nc1ccc(O)cc1	inactive: -14.8% [at 10 µM]	
O=C(CCCn1c(=S)[nH]c2ccccc2c1=O)NCCSCc1ccccc1		inconclusive: 1120 nM [activator, partial curve]
CN(C)c1ccc(-c2nccc(NCc3cccs3)n2)cc1	inactive: -266%	
COC(=O)C(C)n1cnc2c(nnn2Cc2ccc(Cl)cc2)c1=O (stereo not drawn)		inconclusive: 708 nM [activator, single point]
CC(C)(C)OC(=O)NNC(=O)C12CC3CC(CC(C3)C1)C2		inconclusive: 1000 nM [activator, partial curve]
Cc1ccc(-c2noc(CCC(=O)N(C)c3ccccc3C)n2)cc1	inactive: 2.26%	
O=C(COC(=O)c1cnc(Cl)c(Cl)c1)NCc1ccco1		inconclusive: 708 nM [activator, single point]
CCOC(=O)c1sc(NC(=O)CCC(=O)O)nc1C		inconclusive: 794 nM [activator, single point]
O=C(Nc1nc(COc2ccccc2)cs1)C12CC3CC(CC(C3)C1)C2	inactive: -125%	
CC(=O)S[C@H]1CC2=CC(=O)CC[C@@]2(C)[C@H]2CC[C@@]3(C)[C@H](CC[C@]34CCC(=O)O4)[C@@H]12		inconclusive: 89.1 nM [activator, full curve]

Record cards (already shown).
O=C(CCCn1c(=S)[nH]c2ccccc2c1=O)NCCSCc1ccccc1 is entered as Potency: inconclusive: 1120 nM [activator, partial curve]
C/C(=N\NC(N)=O)C1CC(CC(C)C)C(=O)O1 (stereo not drawn) is entered as Potency: inconclusive: 1260 nM [activator, single point]

— PubChem BioAssay AID1471 (National Center for Advancing Translational Sciences (NCATS), 2008)
